Data published in paper PMC5535931.
These are yes or no findings as the source states them, for the method shown. Binding seen in cells or lysates may run through a third protein. Here binding means that the protein was enriched with, or labelled near, the bait; the list need not be complete. Values belong to the binder of their own block, whether it stands above or below them.

The chains behind the UniProt entries cited, without tags or fusion partners.
UniProt Q15910: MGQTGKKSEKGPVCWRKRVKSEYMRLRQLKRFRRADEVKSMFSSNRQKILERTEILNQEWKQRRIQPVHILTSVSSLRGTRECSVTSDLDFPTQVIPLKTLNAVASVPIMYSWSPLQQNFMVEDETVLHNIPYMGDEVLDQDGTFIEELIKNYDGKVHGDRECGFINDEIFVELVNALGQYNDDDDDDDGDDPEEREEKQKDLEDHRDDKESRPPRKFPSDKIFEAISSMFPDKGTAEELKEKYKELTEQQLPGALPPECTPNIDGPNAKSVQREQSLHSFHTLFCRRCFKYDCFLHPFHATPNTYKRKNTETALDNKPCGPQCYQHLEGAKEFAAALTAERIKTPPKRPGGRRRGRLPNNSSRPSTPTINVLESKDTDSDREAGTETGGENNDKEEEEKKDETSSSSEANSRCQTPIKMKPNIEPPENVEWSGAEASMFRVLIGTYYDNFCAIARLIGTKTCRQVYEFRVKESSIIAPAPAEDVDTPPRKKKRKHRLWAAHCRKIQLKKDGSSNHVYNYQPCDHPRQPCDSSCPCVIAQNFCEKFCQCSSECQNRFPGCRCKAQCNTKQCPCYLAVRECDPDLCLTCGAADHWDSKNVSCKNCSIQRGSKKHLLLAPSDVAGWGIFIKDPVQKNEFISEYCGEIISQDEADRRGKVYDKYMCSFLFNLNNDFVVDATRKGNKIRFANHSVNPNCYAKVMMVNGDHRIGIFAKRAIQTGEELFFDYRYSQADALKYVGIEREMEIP

Assays:
[1] = biological target: EZH2 (Enhancer of zeste homology 2) (human (endogenous in HL-60)), Q15910; assay: affinity purification with mass spectrometry; immunoprecipitation of native, untagged EZH2 from HL-60 lysates (untreated, or stimulated with 0.1 µM AtRA) with anti-EZH2 antibodies (Abcam ab186006; Cell Signaling clone AC22) on protein A/G magnetic beads, overnight at 4 °C, against IgG isotype controls; LC-MS/MS; hits filtered by fold change over IgG, CRAPome and SAINTexpress; details: remark: other sources report otherwise
[2] = biological target: EZH2 (Enhancer of zeste homology 2) (human (endogenous in HL-60)) (UniProt Q15910); assay: as above

binding [1]: binds
B1: EZH1, Q92800 1-747 (protein)
chain: MEIPNPPTSKCITYWKRKVKSEYMRLRQLKRLQANMGAKALYVANFAKVQEKTQILNEEWKKLRVQPVQSMKPVSGHPFLKKCTIESIFPGFASQHMLMRSLNTVALVPIMYSWSPLQQNFMVEDETVLCNIPYMGDEVKEEDETFIEELINNYDGKVHGEEEMIPGSVLISDAVFLELVDALNQYSDEEEEGHNDTSDGKQDDSKEDLPVTRKRKRHAIEGNKKSSKKQFPNDMIFSAIASMFPENGVPDDMKERYRELTEMSDPNALPPQCTPNIDGPNAKSVQREQSLHSFHTLFCRRCFKYDCFLHPFHATPNVYKRKNKEIKIEPEPCGTDCFLLLEGAKEYAMLHNPRSKCSGRRRRRHHIVSASCSNASASAVAETKEGDSDRDTGNDWASSSSEANSRCQTPTKQKASPAPPQLCVVEAPSEPVEWTGAEESLFRVFHGTYFNNFCSIARLLGTKTCKQVFQFAVKESLILKLPTDELMNPSQKKKRKHRLWAAHCRKIQLKKDNSSTQVYNYQPCDHPDRPCDSTCPCIMTQNFCEKFCQCNPDCQNRFPGCRCKTQCNTKQCPCYLAVRECDPDLCLTCGASEHWDCKVVSCKNCSIQRGLKKHLLLAPSDVAGWGTFIKESVQKNEFISEYCGELISQDEADRRGKVYDKYMSSFLFNLNNDFVVDATRKGNKIRFANHSVNPNCYAKVVMVNGDHRIGIFAKRAIQAGEELFFDYRYSQADALKYVGIERETDVL

binding [2]: binds
B2: NONO (protein, UniProt Q15233 1-471)
chain: MQSNKTFNLEKQNHTPRKHHQHHHQQQHHQQQQQQPPPPPIPANGQQASSQNEGLTIDLKNFRKPGEKTFTQRSRLFVGNLPPDITEEEMRKLFEKYGKAGEVFIHKDKGFGFIRLETRTLAEIAKVELDNMPLRGKQLRVRFACHSASLTVRNLPQYVSNELLEEAFSVFGQVERAVVIVDDRGRPSGKGIVEFSGKPAARKALDRCSEGSFLLTTFPRPVTVEPMDQLDDEEGLPEKLVIKNQQFHKEREQPPRFAQPGSFEYEYAMRWKALIEMEKQQQDQVDRNIKEAREKLEMEMEAARHEHQVMLMRQDLMRRQEELRRMEELHNQEVQKRKQLELRQEEERRRREEEMRRQQEEMMRRQQEGFKGTFPDAREQEIRMGQMAMGGAMGINNRGAMPPAPVPAGTPAPPGPATMMPDGTLGLTPPTTERFGQAATMEGIGAIGGTPPAFNRAAPGAEFAPNKRRRY
